Data published in PubChem BioAssay AID651664 (NMMLSC, 2012).
Fewer than 10 of roughly 1,800 compounds were called active.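 How the source made its calls: active means inhibition of granule release above a set limit; inactive means the rest.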 The list shows a part of the results.

Assay: LAMP-1 surface externalization blockers in TALL-104 cells – cell-based, flow cytometry, validation set (AID 651664)
Settings: TALL-104 LAMP-1 externalization, at 15.2 µM, hits give high values, stimulated with thapsigargin and PMA
In the case of `COC(=O)c1ccc(NC(=O)C2CC(=O)N(c3cc(C)ccc3C)C2)cc1` (configuration not stated), the inhibition is reported as inactive: -0.6%. For `CCOc1cccc(-c2cc(=O)[nH][nH]2)c1`, the inhibition was inactive: 1.8%. In the case of `Cc1cc(C(=O)Nc2nnc(-c3ccccc3)s2)no1`, the inhibition is reported as inactive: -2.1%. For `O=c1ccc(Oc2nc(N3CCOCC3)nc(N3CCOCC3)n2)n[nH]1`, the inhibition was inactive: 5.4%. For `COc1cccc(N2CCN(c3ncnc4c3[nH]c3ccc(F)cc34)CC2C)c1` (configuration not stated), the inhibition was inactive: 1.9%. With `COCCN(C(=O)Cn1nnc2ccccc21)C(C(=O)NC1CCCC1)c1cc(OC)ccc1OC` (configuration not stated) the inhibition was inactive: 0.7%. For `OCc1cn(-c2ccccc2)nc1-c1cccnc1`, the inhibition was inactive: -0.9%. For `O=C(c1ccco1)N1CCN(C2=NS(=O)(=O)c3ccccc32)CC1`, the inhibition was inactive: 5.5%. With `O=C(Oc1ccccc1)c1cc2ccccc2o1` the inhibition was inactive: -0.7%. In the case of `Cc1nc(=S)c2ccccc2[nH]1`, the inhibition is reported as inactive: 2%. With `O=C(CN(c1ccc(Cl)c(Cl)c1)S(=O)(=O)c1ccccc1)N1CCc2ccccc2C1` the inhibition was inactive: 0.8%. In the case of `CN(C)CCCN1C(=O)C(=O)/C(=C(/O)c2ccncc2)C1c1cccc(Br)c1` (configuration not stated), the inhibition is reported as inactive: 3.3%. For `CC(=O)c1c(C)n([O-])c2cc(C)ccc2[n+]1=O`, the inhibition was inactive: -0.9%. For `CC(C)C(=O)Nc1cccc(-c2cn3ccsc3n2)c1`, the inhibition was inactive: -0.2%. In the case of `CCC(C#CCN1CCCCC1)(CC)OCCC#N`, the inhibition is reported as inactive: 25.8%. For `Cc1ccc(Nc2ncnc3sc(C)c(C)c23)cc1C`, the inhibition was inactive: 0.1%. With `COc1cc2c(cc1OC)C1(Nc3c-2c(Cc2ccccc2)nn3-c2ccccc2)C(=O)Nc2ccccc21` (configuration not stated) the inhibition was inactive: -2.5%. With `CC1(C)CC2(CCO1)N1CC3(C)CN2CC(C)(C1)C3=O` (configuration not stated) the inhibition was inactive: -4.6%. In the case of `O=C1c2[nH]nc(-c3ccccc3O)c2C(c2cccc(O)c2)N1Cc1ccco1` (configuration not stated), the inhibition is reported as inactive: 1.4%. For `Cc1ccsc1C(=O)N1CC(=O)Nc2ccccc21`, the inhibition was inactive: 4.8%. With `NS(=O)(=O)c1ccc(N2N=C(c3ccc(Br)cc3)CC2c2ccc(F)cc2)cc1` (configuration not stated) the inhibition was inactive: -3.2%. For `CCOC(=O)CCc1c(C)c2ccc(OCc3cc([N+](=O)[O-])ccc3OC)cc2oc1=O`, the inhibition was inactive: -0.4%. For `CCCc1nc(NCc2ccccn2)c2nnn(Cc3ccccc3F)c2n1`, the inhibition was inactive: -0.5%. With `Cn1nc(-c2ccccc2)c(CSc2ccccc2Cl)c1Cl` the inhibition was inactive: 2.7%. For `Cc1cc2nc(-c3ccc(NC(=O)c4cccnc4)cc3)oc2cc1C`, the inhibition was inactive: -4.6%. For `O=C(Nc1ccccc1-c1nnn(CC(=O)N2CCc3ccccc3C2)n1)C1CCC1`, the inhibition was inactive: -2.2%. With `O=C(/C=C/c1ccc([N+](=O)[O-])cc1)NCC1CCCO1` (configuration not stated) the inhibition was inactive: -0.8%. In the case of `CCC(C)NC(=O)CSc1nnc(-c2cc(-c3cccs3)nc3ccccc23)o1` (configuration not stated), the inhibition is reported as inactive: -1.3%. With `CCSC1(SCC)N=C(N)C2(C#N)C(c3ccccc3)NC(C)=CC12C#N` (configuration not stated) the inhibition was inactive: 2.2%. In the case of `C=CCn1c(COc2ccc(CC)cc2)nnc1SCC(=O)NC1CCS(=O)(=O)C1` (configuration not stated), the inhibition is reported as inactive: 2.5%. For `Cc1nc(-c2cccc(S(=O)(=O)N3CC(C)CC(C)C3)c2)cs1` (configuration not stated), the inhibition was inactive: -2.8%. In the case of `Cc1ccc(CC2S/C(=N/c3ccccn3)NC2=O)cc1` (configuration not stated), the inhibition is reported as inactive: -3.1%. With `Cc1ccc(CN2C(=O)CCC2C(=O)NCCN2CCOCC2)cc1` (configuration not stated) the inhibition was inactive: 0.4%. For `CCOC(=O)C1=C(C)NC(=O)NC1c1ccc(OCC(N)=O)cc1` (configuration not stated), the inhibition was inactive: -1.2%. With `CC1(C)Cc2c(c(-c3ccco3)nc3n[nH]c(N)c23)CO1` the inhibition was inactive: 0.7%. With `CCCn1c2c(c(O)c(C(=O)Nc3ccccc3)c1=O)CCCC2` the inhibition was inactive: 1.8%. For `COC(=O)C(C#N)C(=C1C(=O)CC(C)(C)CC1=O)c1ccc(O)cc1` (configuration not stated), the inhibition was inactive: -2.7%. With `Cc1csc(SCCn2c(N3CCN(c4ccccc4)CC3)nc3c2c(=O)[nH]c(=O)n3C)n1` the inhibition was inactive: 0%. For `CCOC(=O)C1CCN(C(c2ccccn2)c2c(C)[nH]c3ccccc23)CC1` (configuration not stated), the inhibition was inactive: -1.2%. For `CCOC(=O)C1=C(C)N(C2CCCCC2)C(=O)C1`, the inhibition was inactive: 0.6%. In the case of `Cc1ccc(C2=[N+]([O-])C3(CCCCC/C3=N\NC(N)=O)N(O)C2(C)C)o1` (configuration not stated), the inhibition is reported as inactive: 4.6%. In the case of `Cc1cc(C)nc(NS(=O)(=O)c2ccc(NC(=O)c3ccc4c(c3)OCO4)cc2)n1`, the inhibition is reported as inactive: -2.2%. In the case of `COCCNC(=O)C(C#N)c1nc2ccccc2nc1N1CCCCCC1` (configuration not stated), the inhibition is reported as inactive: -1.4%. With `COc1ccc(C2C3=C(CCCC3=O)Nc3nc(C(F)(F)F)nn32)cc1OC` (configuration not stated) the inhibition was inactive: 1.7%. In the case of `COc1ccc(NC(=O)CCC(=O)c2ccc(-c3ccccc3)cc2)cc1`, the inhibition is reported as inactive: 1.8%. With `COc1ccc(-n2c(C)c([N+](=O)[O-])c3ccc(O)c(CN(C)C)c32)cc1` the inhibition was inactive: 2.6%. In the case of `Cc1onc(-c2c(Cl)cccc2Cl)c1C(=O)N1CCc2ccccc2C1`, the inhibition is reported as inactive: -0.2%. In the case of `Cc1ccc(NC(=O)Cn2cncc2-c2ccc([N+](=O)[O-])cc2)cc1C`, the inhibition is reported as inactive: -1.3%. In the case of `COCCNC(=O)c1c[nH]c2ccc(S(=O)(=O)N3CCC4(CC3)OCCO4)cc2c1=O`, the inhibition is reported as inactive: 0.5%. In the case of `CCOC(=O)c1[nH]c2ccccc2c1N=CN(C)C`, the inhibition is reported as inactive: 0.3%. For `CCOc1ccc(C(=O)OCC(=O)c2c(N)n(C)c(=O)n(C)c2=O)cc1OCC`, the inhibition was inactive: -1.7%. With `COCCNC(=O)C(=O)NCCN1CCOCC1` the inhibition was inactive: 1.7%. In the case of `CN1CCN(C(=O)c2ccc3c(c2)NC(=O)C(N2CCOCC2)S3)CC1` (configuration not stated), the inhibition is reported as inactive: 3.1%. In the case of `O=c1[nH]ncc2c3ccccc3n(Cc3ccc(F)cc3)c12`, the inhibition is reported as inactive: 0.4%. In the case of `COC(=O)c1ccc2[nH]c(C)cc(=O)c2c1`, the inhibition is reported as inactive: 1.4%. With `COc1cccc(OC)c1C(=O)NC(=S)N1CCN(c2ccc(C(F)(F)F)cc2[N+](=O)[O-])CC1` the inhibition was inactive: 1.5%. In the case of `Cn1c(=O)c2c(-c3ccccc3)n(N3CCOCC3)cc2n(C)c1=O`, the inhibition is reported as inactive: 2.9%. With `Nc1ncnc2nc(SCc3ccc(Cl)cc3Cl)[nH]c12` the inhibition was inactive: 6.3%. With `CCN(CC)CCOC(=O)c1cccc(OC)c1` the inhibition was inactive: 0.2%. For `CC(C)OC(=O)CC12CN3CC(CC(=O)OC(C)C)(CN(C1)C(=O)c1ccccc1C3=O)C2=O`, the inhibition was inactive: -2.2%. In the case of `COc1ccc(CNC(=O)C(C#N)c2nc3ccccc3nc2N2CCCC2)cc1` (configuration not stated), the inhibition is reported as inactive: -0.5%. With `O=C(CN1C(=O)CCS(=O)(=O)c2ccccc21)Nc1cccc(Cl)c1` the inhibition was inactive: -1.2%. With `Cc1ccc(C(=O)OCCN2CCN(c3ncc(C(F)(F)F)cc3Cl)CC2)cc1` the inhibition was inactive: 1.6%. For `CC(C)C1Cc2c(sc3c2c(=O)n(Cc2ccccc2)c2nncn32)CO1` (configuration not stated), the inhibition was inactive: -1.4%. With `COC(=O)C1=C(N)c2c(F)cccc2C1(C#N)c1ccccc1` (configuration not stated) the inhibition was inactive: 0.3%. In the case of `COC(=O)CSc1nc(SCc2ccc(C)cc2)nc2c1CCCC2`, the inhibition is reported as inactive: 0.1%. In the case of `CNc1nc(Oc2ccc(=O)n(C)n2)nc(N2CCOCC2)n1`, the inhibition is reported as inactive: -0.6%. With `Cc1ccc(Nc2cc(=O)n(C3CCCCC3)c(=O)[nH]2)cc1C` the inhibition was inactive: 2.8%. With `COc1ccccc1-c1nc(C#N)c(N2CCN(C(c3ccccc3)c3ccccc3)CC2)o1` the inhibition was inactive: 2.6%. In the case of `Cc1ccc(S(=O)(=O)c2c(N)n(CCCO)c3nc4ccccc4nc23)cc1`, the inhibition is reported as inactive: -1.5%. With `O=C(OCC(=O)N1CCCC1)c1ccco1` the inhibition was inactive: 0.9%. In the case of `Cc1nn2c(N)c(C#N)cnc2c1-c1ccc(Cl)cc1`, the inhibition is reported as inactive: 2.5%. In the case of `O=C(Nc1ccc(Cl)c(Cl)c1)C1=Cc2ccccc2OC1`, the inhibition is reported as inactive: 5.1%. With `Cc1ccccc1C1=NC(c2ccc(F)cc2F)ON1` (configuration not stated) the inhibition was inactive: 1.2%. In the case of `C=CCn1c(-c2cccs2)nc2nc3ccccc3nc21`, the inhibition is reported as inactive: -2.3%. With `CSCC[C@H](NC(=O)NCCC1=CCCCC1)C(=O)O` the inhibition was inactive: 1.1%. With `COC(=O)CSc1ncnc2c1cnn2Cc1ccccc1` the inhibition was inactive: -0.5%. For `O=C(O)CCc1c(C(=O)O)[nH]c2ccccc12`, the inhibition was inactive: 1.9%. In the case of `COc1ccc(C(=O)N2CCCC2)cc1S(=O)(=O)N1CCC(C)CC1`, the inhibition is reported as inactive: 2.4%. In the case of `CC(C)COc1nc2ccccc2c(=O)n1OCC(=O)O`, the inhibition is reported as inactive: -1.8%. In the case of `COCc1ccc(O)c2ncccc12`, the inhibition is reported as inactive: -1.7%. For `CNc1nc(C)c(C(=O)c2ccc(Cl)cc2)s1`, the inhibition was inactive: 1.3%. In the case of `Cc1ccc(S(=O)(=O)c2nc(S(C)(=O)=O)sc2NCC2CCCO2)cc1` (configuration not stated), the inhibition is reported as inactive: -1.4%. In the case of `N#Cc1c(-c2ccccc2)nc(-c2ccccc2)nc1N1CCOCC1`, the inhibition is reported as inactive: -0.6%. With `O=C(CSc1nnc(-c2ccccc2Cl)o1)Oc1ccc(Br)cc1` the inhibition was inactive: -2.2%. With `O=C(NCC(c1cccnc1)N1CCN(c2ccccc2F)CC1)C1CCCCC1` (configuration not stated) the inhibition was inactive: 0.3%. In the case of `CCN(CC)Cc1c(O)ccc2c(=O)c(-c3ccc4c(c3)OCCO4)coc12`, the inhibition is reported as inactive: 2.4%. With `Cc1cnn(-c2cc(N/N=C/c3ccccc3Cl)ncn2)c1` the inhibition was inactive: 4.7%. In the case of `COc1ccccc1NC(=O)N(Cc1ccccc1)c1ccccn1`, the inhibition is reported as inactive: -0.2%. With `Clc1ccc(OCCSc2nnnn2C2CCCCC2)cc1` the inhibition was inactive: 1%. For `CCCCN(Cc1cc2ccccc2[nH]c1=O)C(=O)c1ccccn1`, the inhibition was inactive: 0.4%. With `O=C1N=C(N2CCCC2)S/C1=C\c1cccc(Br)c1` the inhibition was inactive: 0.5%. For `CC(=O)N1CCc2cc(NS(=O)(=O)c3cccs3)ccc21`, the inhibition was inactive: -1.2%. With `Cc1cc(=O)oc2c(CN3CCCCC3)c(O)c(Cl)cc12` the inhibition was inactive: -0.5%. In the case of `CCc1sc2nc(SCC(=O)Nc3cc(C)on3)n(-c3cccc(OC)c3)c(=O)c2c1C`, the inhibition is reported as inactive: -1.9%. With `COc1ccc(NC(=O)c2ccccc2Cl)cc1NC(=O)CN1CCOCC1` the inhibition was inactive: 3.1%. With `COc1ccc(C2=CC(c3sccc3C)n3nnnc3N2)cc1` (configuration not stated) the inhibition was inactive: 1.8%.
